For 17 molecules, AC50 results are on record in PubChem BioAssay AID493014 (National Center for Advancing Translational Sciences (NCATS), 2011).

The list shows a part of the results. Further columns of the screen follow, without active or inactive calls. Compounds called inactive in the main read-out are mostly missing here. Words in brackets tell the shape of the fitted curve; partial curves, single points and poor fits give uncertain potencies.

The nature of the assay: qHTS Assay to Find Inhibitors of Chronic Active B-Cell Receptor Signaling. The conditions noted are these: ABC-DLBCL IkBa-CBG/CBR reporter, luminescence ratio (green luciferase fused to IkBa over red control in TMD8 lymphoma cells), 4 h. The method, boiled down:
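TMD8 human ABC-DLBCL cells with doxycycline-inducible IκBα–green luciferase fusion and unfused red luciferase, in 0.5% FBS medium; compounds up to 46 uM, 4 h at 37C. Green/red luminescence ratio, filter-overlap corrected, fitted to concentration-response curves.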

Where [1] appears, read: measured here: CBR red luminescence, cell number.
The mark [2] stands for this setting: measured here: IkBa-CBG green luminescence.

For `OCCC1CN(Cc2cc3c(cc2Cl)OCO3)CCN1Cc1ccccc1` (stereo not given), the AC50 – broadly, the concentration giving half of the maximal activity seen – under setting [1] was 8.91 µM [falling, single point].
Turning to `O=C1C=C(c2ccc3c(c2)OCO3)C[C@@H](c2ccc(F)cc2)C1`, the AC50 under setting [1] was 3.26 µM [rising, full curve, poor fit].
Still for that read-out and setting: as for `CNCC(O)Cn1c2c(c3ccccc31)CCCC2` (stereo not given), the figure is 17.8 µM [falling, single point].
Same read-out and setting: as for `CCOC(=O)Cc1csc(NC(=O)CC)n1`, the figure is 17.8 µM [rising, partial curve, poor fit].
As to `NC(=O)c1cc(N2C(=O)C=CC2=O)ccc1Cl`, the AC50 by setting is: under setting [1], 22.4 µM [falling, single point]; under setting [2], 22.4 µM [rising, partial curve, poor fit].
`CS(=O)(=O)c1ccccc1C(=O)Nc1ccc(-c2nc3ccccc3[nH]2)cc1`: the AC50 under setting [1] was 10 µM [falling, partial curve].
As to `O=C(Cc1cccs1)NCCc1ccc(F)cc1`, under setting [1], the AC50 was 0.891 µM [rising, full curve, poor fit].
Turning to `C=CCNc1sc(C(=O)c2cccs2)c(N)c1C#N`, under setting [1], the AC50 was 3.26 µM [falling, partial curve, poor fit].
`COC(=O)c1cn(CC(=O)NCc2ccco2)c2ccccc12`: under setting [1], the AC50 was 0.00411 µM [falling, full curve, poor fit].
The same measure, in the same setting: the figure for `Cc1nc(Nc2cccc(O)c2)c2oc3ccccc3c2n1` is 22.4 µM [falling, partial curve, poor fit].
For `COc1ccc(N2CSC3=C(C#N)C(c4cccs4)CC(=O)N3C2)cc1` (stereo not given), the AC50 was 22.4 µM [rising, single point] under setting [1] and 35.5 µM [falling, single point] under setting [2].
As for `O=C(NNC(=S)Nc1ccccc1)Nc1ccccc1`, under setting [1], the AC50 is 4.47 µM [falling, partial curve].
On the same count and under the same terms, as for `COc1ccccc1N(CC(=O)NCCSCc1cccc(C)c1)S(=O)(=O)c1ccccc1`, the figure is 25.1 µM [falling, single point]; as for `COc1ccc(CCN(C(=O)C(F)(F)F)C(C(=O)NC2CCCC2)c2cccs2)cc1OC` (stereo not given), 4.61 µM [rising, full curve, poor fit].
Take `O=C(O)c1cc(Br)ccc1NN=C1CCCCC1`: under setting [1], the AC50 is 0.366 µM [falling, full curve, poor fit].
On the same count and under the same terms, as for `COCCCNC(=S)NNC(=S)Nc1ccccc1`, the figure is 10 µM [falling, partial curve, poor fit].
Regarding `COc1ccc(-c2csc(C3=C(O)CN(CCCN4CCCC4=O)C3=N)n2)cc1OC`, the AC50 is, setting by setting: under setting [1], 0.251 µM [rising, full curve, poor fit]; under setting [2], 14.1 µM [falling, partial curve].
